# Measurements taken from the RNAGym collection of RNA variant scans (doi:10.1126/science.aae0568).
# Variants at the floor of the assay are shown more often than the library holds them.
# B1: tRNA (parent)
# chain: GUUCCGUUGGCGUAAUGGUAACGCGUCUCCCUCCUAAGGAGAAGACUGCGGGUUCGAGUCCCGUACGGAACG
# Variants of: B1
# Experiment: yeast fitness relative to wild type (ratio to wild type); higher = fitter; tRNA-Arg(CCU), competitive growth, 37 C, YPD
# Method in brief: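 Variants of the tRNA-Arg(CCU) gene were chemically synthesised with a 3% per-site mutation rate across 69 sites and placed at the native genomic locus in Saccharomyces cerevisiae. Six parallel replicates of the pooled strains were competed in YPD at 37°C for 24 hours, and gene amplicons from the start and end populations were read by 100-nucleotide paired-end sequencing. Darwinian fitness relative to wild type was derived from changes in genotype frequencies. Genotypes required ≥ 100 starting reads, and estimates < 0.5 were set to 0.5.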
row,Variant,yeast fitness
1,GUUCCGUUGGCGUAAUGGUAACGAGUCUCCCUCCUAAGGAGAAGUCUGCGGGUUGGAGUCCCGUACGGAACG [C24A A45U C55G],≤ 0.5
2,GUUCCGUUGGCGUAAUGGUAACGAGUCUCCCUCCUAAGGAGAAGACUGCGGGUUCGAGUCCCGUACGGAUCG [C24A A70U],0.596
3,GUUCCGUUGGCGUAAUGGUAACGAGUAUCCCUCCUAAGGAGGAGACUGCGGGUUCGAGUCCCGUACGGAACG [C24A C27A A42G],≤ 0.5
4,GUUCCGUUGGCGUAAUGGUAACGAGUAACCCUCCUAAGGAGAAGACUGCGGGUUGGAGUCCCGUACGGAACG [C24A C27A U28A C55G],≤ 0.5
5,GUUCCGUUGGCGUAAUGGUAACGAGUCUGCCUCCUAAGGAGAAGCCUGCGGGUUCGUGUCCCGUCCGGAACG [C24A C29G A45C A57U A65C],≤ 0.5
6,GUUCCGUUGGCGUAAUGGUAACGAGUCUCUCUCCUAAGGAGAAGACUGCGGGUUUGAGUCCCGUACGGAACG [C24A C30U C55U],≤ 0.5
7,GUUCCGUUGGCGUAAUGGUAACGAGUCUCCUUCCUAAGGAGCAGACUGCGGGGUCGAGUCCCGUACGGAACG [C24A C31U A42C U53G],≤ 0.5
8,GUUCCGUUGGCGUAAUGGUAACGAGUCUCCCUUAUAAGGAGAUGAGUGCGGGUUUGAGUCCCGUACGGAACG [C24A C33U C34A A43U C46G C55U],≤ 0.5
9,GUUCCGUUGGCGUAAUGGUAACGAGUCUCCCUCCUAAGGAGAAGACUGCGGGUUCGAGUCUCGUACGCAACG [C24A C61U G68C],≤ 0.5
10,GUUCCGUUGGCGUAAUGGUAACGAGUCUCCCUCCUAAGCAGGAGACUGCGGGUUUGAGUCCCGUACGGAACG [C24A G39C A42G C55U],≤ 0.5
11,GUUCCGUUGGCGUAAUGGUAACGAGUCUCCCUCCUAAGCAGAAGACUGCGGGUUCGAGUCCCGUACGGAUCG [C24A G39C A70U],≤ 0.5
12,GUUCCGUUGGCGUAAUGGUAACGAGUCUCCCUCCUAAGCAGAAGACAGCGGGUUCGAGUCCCGUACGGAACG [C24A G39C U47A],≤ 0.5
13,GUUCCGUUGGCGUAAUGGUAACGAGUCUCCCUCCUAAGGAGAAGACUGCGGGGUCGCGUCCCGUACGGUACG [C24A U53G A57C A69U],≤ 0.5
14,GUUCCGUUGGCGUAAUGGUAACGAGUCUCCCUCCUAAGGAGAAGACUGCGGGUACGAUUCCCGUACGGCACG [C24A U54A G58U A69C],≤ 0.5
15,GUUCCGUUGGCGUAAUGGUAACGGGUCUCCCUCCUCAGGAGUGGACUGCGGGUUCGAGUCCCGUACGGAACG [C24G A36C A42U A43G],≤ 0.5
16,GUUCCGUUGGCGUAAUGGUAACGGGUCUCCCUCCUUAGGAGCAGACUGCGGGUUUGAGUCCCGUACGGAACG [C24G A36U A42C C55U],≤ 0.5
17,GUUCCGUUGGCGUAAUGGUAACGGGUCUCCCUCCUAGGGAGAUGACUGCGGGUUCGAGUCCGGUACGGAACG [C24G A37G A43U C62G],0.77
18,GUUCCGUUGGCGUAAUGGUAACGGGUCUCCCUCCUAUGGAGAAGACUGUGGGUUCGAGACCCGUACGGAACG [C24G A37U C49U U59A],≤ 0.5
19,GUUCCGUUGGCGUAAUGGUAACGGGUCUCCCUCCUAUGGAGAAGACAGCGGGUUCGAGACCCGUACGGAACG [C24G A37U U47A U59A],≤ 0.5

row,Variant,yeast fitness
1,GUUCCGUUGGCGUAAUGGUAACGGGUCUCCCUCCUAUGGAGAAGACUGCGGGUUCGAGACCCGUACGGAACG [C24G A37U U59A],≤ 0.5
2,GUUCCGUUGGCGUAAUGGUAACGGGUCUCCCUCCUAAGGGGAAGACUGCGGGAUCGAGUCCCGUACGCAACG [C24G A40G U53A G68C],≤ 0.5
3,GUUCCGUUGGCGUAAUGGUAACGGGUCUCCCUCCUAAGGAGGUGACAGCGGGUUCGAGUCCCGUACGGAACG [C24G A42G A43U U47A],0.635
4,GUUCCGUUGGCGUAAUGGUAACGGGUCUCCCUCCUAAGGAGUAGGCUGCGGGUUCGAGUCCCGUACGGAACG [C24G A42U A45G],≤ 0.5
5,GUUCCGUUGGCGUAAUGGUAACGGGUCUCCCUCCUAAGGAGACGACUACGGGUUCGAGUCCCGUACGGAACG [C24G A43C G48A],≤ 0.5
6,GUUCCGUUGGCGUAAUGGUAACGGGUAUCCCUCCUAAGGAGAAGACUGCGGGUUCGAGUCCCGUCCGGAACG [C24G C27A A65C],≤ 0.5
7,GUUCCGUUGGCGUAAUGGUAACGGGUGUCCCUCCUAGGGAGAAGACUGCGGGUUCGAGUCCCGUACGGAACG [C24G C27G A37G],0.575
8,GUUCCGUUGGCGUAAUGGUAACGGGUGUCCCUCCUAAGGAGAAGACUGCGGGUUCGAGUCUCGUGCGCAACG [C24G C27G C61U A65G G68C],≤ 0.5
9,GUUCCGUUGGCGUAAUGGUAACGGGUGUCCCUCCUAAGGAGAAGACUGCGGGUACGUGUCGCGUACGGAUCG [C24G C27G U54A A57U C61G A70U],≤ 0.5
10,GUUCCGUUGGCGUAAUGGUAACGGGUUUCCCUUCUAAGGAGAAGACUGCCGGUUCGAGUCCCGUAUGGAACG [C24G C27U C33U G50C C66U],≤ 0.5
11,GUUCCGUUGGCGUAAUGGUAACGGGUUUCCCUCCUAAGGAGAAGACUGCAGAUUCGAGUCCCGUAUGGAACG [C24G C27U G50A G52A C66U],≤ 0.5
12,GUUCCGUUGGCGUAAUGGUAACGGGUCUAUCUCCUAAGGAGAAGACUGCAGGUUCGAGUCCUGUACGGAACG [C24G C29A C30U G50A C62U],≤ 0.5
13,GUUCCGUUGGCGUAAUGGUAACGGGUCUCGCUCCUUAGGAGAAGACUGCGGGUUUGAGUCCCGUACGGCACG [C24G C30G A36U C55U A69C],≤ 0.5
14,GUUCCGUUGGCGUAAUGGUAACGGGUCUCGCUCGUAAGGAGAAGACUGCGGGUUCGAGUCCCGUACGGAGCG [C24G C30G C34G A70G],≤ 0.5
15,GUUCCGUUGGCGUAAUGGUAACGGGUCUCGCUCCUAAGGAGAAGACUGCGGGUUCGAGUCCCGUAUGGAACG [C24G C30G C66U],≤ 0.5
16,GUUCCGUUGGCGUAAUGGUAACGGGUCUCGCUCCUAAGAAGAAGACUGCGAGUUCGAGUCCCGUACGGAACG [C24G C30G G39A G51A],≤ 0.5
17,GUUCCGUUGGCGUAAUGGUAACGGGUCUCUCUCCUAAGGAGAACACUGCGGGUUCGAGUCCCGUACGGAACG [C24G C30U G44C],≤ 0.5
18,GUUCCGUUGGCGUAAUGGUAACGGGUCUCCAUCCUAAGGAGACAACUGCGGGUUCGAGACCCGUACGGAACG [C24G C31A A43C G44A U59A],≤ 0.5
19,GUUCCGUUGGCGUAAUGGUAACGGGUCUCCGUCCUAAGGAGAAGACUGCGGGUUCGAGUCCCGUAUGGAACG [C24G C31G C66U],≤ 0.5
